Assay results published in patent CN115772221A.
These are yes or no findings as the source states them, for the method shown. Some binding calls cover weakened binding; strength is not graded here.

Amino acid sequences for entries named in this document (tags omitted). Residues count along the entry.
UniProt Q08722, residues 19-323: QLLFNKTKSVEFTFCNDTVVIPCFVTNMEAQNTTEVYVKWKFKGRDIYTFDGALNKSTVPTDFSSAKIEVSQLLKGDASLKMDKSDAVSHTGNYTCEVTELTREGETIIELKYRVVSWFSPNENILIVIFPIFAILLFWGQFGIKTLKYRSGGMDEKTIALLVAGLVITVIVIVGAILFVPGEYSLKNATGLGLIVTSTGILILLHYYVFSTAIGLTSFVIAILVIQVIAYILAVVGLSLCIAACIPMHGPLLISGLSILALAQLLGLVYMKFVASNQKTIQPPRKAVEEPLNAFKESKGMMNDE

Assays:
[1] = target: 人CD47 (表面过表达人CD47的293F细胞) (human) (UniProt Q08722); assay: flow cytometry on 293F cells overexpressing human CD47
[2] = target: 食蟹猴CD47-his蛋白 (ACRO biosystems, cat#CD7-C52H1, MW 15.8 kDa) (cynomolgus monkey); assay: capture ELISA, antibody captured by goat anti-mouse IgG Fcγ, biotinylated cynomolgus CD47 at 60 nM

- binding [1]: binds
- binding [2]: binds
B1: 小鼠抗CD47单克隆抗体1D2 (antibody, V domains shown)
VH: EVQLQQSGPELVKPGASVRISCKTSGYKFTDYNIHWVKQSHGKSLEYIGYIYPYNISSAYNQKFKSKATVTVDNSSSTSYMELRSLTSEDSAVYYCARGGWRAMDYWGQGTSVTVSS
VL: AVLMTQSPLSLPVSLGDQASLSCRSSQNIVHTNGYTYLAWYLQRPGQSPKLLIYKVSNRFSGVPDRFSGSGSGTDFTLRISRVEAEDLGVYYCFQGSHVPWTFGGGTKLEIK
